{"source": "PubChem BioAssay AID504784 (Drosophila RNAi Screening Center, 2011)", "aim": "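Fly genes whose silencing alters how much lipid cells keep in droplets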 (primary screen)", "cells": "Drosophila Kc167 embryonic cells", "reagent": "long dsRNA against Drosophila genes, about 250 ng dsRNA per well", "time to read-out": "4 days", "conditions": "cells fed 400 µM oleic acid bound to BSA", "detection": "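Cells imaged and segmented; ratio of lipid droplet area to nuclear area, log-transformed, then normalised as a B-score over the screen; higher means more stored lipid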", "scale": "droplet/nuclear area B-score: higher = more stored lipid (overstorage)", "note": "In all, the deposit lists about 17,000 reagents; below is an unselected part of those with a known target gene and a result. 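Each column is one replicate's B-score; the combined score over replicates was not deposited, so single values may mislead.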 A plus sign joins genes that one reagent is predicted to hit. Further read-outs or replicates are left out here. No sequences are given here."}
{"target":"CG6527","amplicon":"DRSC10659","droplet/nuclear area B-score, replicate 1":-0.0515}
{"target":"porin","amplicon":"DRSC03594","droplet/nuclear area B-score, replicate 1":0.801}
{"target":"CG15202","amplicon":"DRSC19649","droplet/nuclear area B-score, replicate 1":0.0982}
{"target":"Pxd (Peroxidase)","amplicon":"DRSC16805","droplet/nuclear area B-score, replicate 1":1.45}
{"target":"CSN4 (COP9 signalosome subunit 4)","amplicon":"DRSC07350","droplet/nuclear area B-score, replicate 1":-1.15}
{"target":"CG14106","amplicon":"DRSC10109","droplet/nuclear area B-score, replicate 1":-0.733}
{"target":"CG8520","amplicon":"DRSC07206","droplet/nuclear area B-score, replicate 1":1.07}
{"target":"CG42237","amplicon":"DRSC19891","droplet/nuclear area B-score, replicate 1":0.97}
{"target":"Iris","amplicon":"DRSC00663","droplet/nuclear area B-score, replicate 1":-0.509}
{"target":"Mi-2 + Su(Tpl)","amplicon":"DRSC09640","droplet/nuclear area B-score, replicate 1":0.452}
{"target":"CG33506","amplicon":"DRSC05981","droplet/nuclear area B-score, replicate 1":-0.839}
{"target":"CG6937","amplicon":"DRSC16140","droplet/nuclear area B-score, replicate 1":0.885}
{"target":"Tudor-SN (Tudor staphylococcal nuclease)","amplicon":"DRSC08581","droplet/nuclear area B-score, replicate 1":0.523}
{"target":"CG30046","amplicon":"DRSC06691","droplet/nuclear area B-score, replicate 1":0.119}
{"target":"Tim23 (Translocase of inner mitochondrial membrane 23)","amplicon":"DRSC21240","droplet/nuclear area B-score, replicate 1":-2.26}
{"target":"CG32407","amplicon":"DRSC09789","droplet/nuclear area B-score, replicate 1":0.644}
{"target":"smid (smallminded)","amplicon":"DRSC11398","droplet/nuclear area B-score, replicate 1":0.117}
{"target":"Vha100-3 (Vacuolar H[+] ATPase 100kD subunit 3)","amplicon":"DRSC05760","droplet/nuclear area B-score, replicate 1":-0.415}
{"target":"gskt (gasket)","amplicon":"DRSC14056","droplet/nuclear area B-score, replicate 1":-2.3}
{"target":"CG12909","amplicon":"DRSC06224","droplet/nuclear area B-score, replicate 1":0.363}
{"target":"TfIIA-L (Transcription factor IIA L)","amplicon":"DRSC16882","droplet/nuclear area B-score, replicate 1":-0.18}
{"target":"CG13426","amplicon":"DRSC06388","droplet/nuclear area B-score, replicate 1":1.19}
{"target":"kmr (kramer)","amplicon":"DRSC14827","droplet/nuclear area B-score, replicate 1":-0.375}
{"target":"kmr (kramer)","amplicon":"DRSC14828","droplet/nuclear area B-score, replicate 1":-1.44}
{"target":"kmr (kramer)","amplicon":"DRSC16472","droplet/nuclear area B-score, replicate 1":6.63}
{"target":"CG15814","amplicon":"DRSC19730","droplet/nuclear area B-score, replicate 1":0.253}
{"target":"spab (space blanket)","amplicon":"DRSC07112","droplet/nuclear area B-score, replicate 1":-0.804}
